Results of single-concentration screens

Sequences of proteins named here, by UniProt entry; tags and fusion partners are left off. Residues count along the entry.
UniProt A4I591, 1-473: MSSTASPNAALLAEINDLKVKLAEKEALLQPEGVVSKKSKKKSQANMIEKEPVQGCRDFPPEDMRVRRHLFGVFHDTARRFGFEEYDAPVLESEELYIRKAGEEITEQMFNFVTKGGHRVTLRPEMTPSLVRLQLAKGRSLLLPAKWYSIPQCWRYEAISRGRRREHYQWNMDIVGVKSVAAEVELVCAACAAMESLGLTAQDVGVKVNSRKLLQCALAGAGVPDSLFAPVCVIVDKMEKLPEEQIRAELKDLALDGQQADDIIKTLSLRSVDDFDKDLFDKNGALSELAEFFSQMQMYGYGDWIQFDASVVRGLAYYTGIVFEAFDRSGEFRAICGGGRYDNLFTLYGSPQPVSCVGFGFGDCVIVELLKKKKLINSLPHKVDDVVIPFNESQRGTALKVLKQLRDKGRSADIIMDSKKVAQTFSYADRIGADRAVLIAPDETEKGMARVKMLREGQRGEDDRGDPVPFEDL
UniProt P9WNZ1, whole entry: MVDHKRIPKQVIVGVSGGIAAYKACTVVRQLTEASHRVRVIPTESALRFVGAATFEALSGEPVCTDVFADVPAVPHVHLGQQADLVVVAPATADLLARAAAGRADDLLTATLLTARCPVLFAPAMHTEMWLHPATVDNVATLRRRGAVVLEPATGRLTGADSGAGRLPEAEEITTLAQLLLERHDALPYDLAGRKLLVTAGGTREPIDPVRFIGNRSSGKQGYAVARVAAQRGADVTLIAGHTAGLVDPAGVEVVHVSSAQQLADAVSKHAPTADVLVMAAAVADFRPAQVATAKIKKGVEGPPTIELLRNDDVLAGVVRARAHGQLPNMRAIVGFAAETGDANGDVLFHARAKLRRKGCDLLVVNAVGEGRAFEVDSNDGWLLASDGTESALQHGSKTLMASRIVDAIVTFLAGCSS

Data taken from ChEMBL document CHEMBL3988442, “University of Dundee, Small-Polar-MMV Screening Library” (2021).

A: 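Histidine-tRNA ligase, Leishmania infantum (UniProt A4I591). Enzyme assay of histidyl-tRNA synthetase; the read-out is not stated. Compounds at 30 µM. The record gives no direction; compounds that gave an IC50 in retests scored well above the rest, so higher reads as stronger inhibition. The assay is labelled LdHisRS but filed under L. infantum. About 69,000 compounds were tested under these conditions; 0.6% (about 410) showed 50% or more at least once.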
B: 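Cell assay of Leishmania donovani living inside macrophages; the read-out is not stated. Concentration: 30 µM. Direction is inferred from retests: higher values go with stronger inhibition. Size under these conditions: about 69,000 compounds, about 1,000 of them at 50% or above in at least one test.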
C: 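Coenzyme A biosynthesis protein CoaBC, Mycobacterium tuberculosis (UniProt P9WNZ1). Enzyme assay of CoaBC with a phosphate dye (Biomol Green) read at 650 nm. Tested at 30 µM. Direction is inferred from only a few compounds that gave an IC50; most scored high, so higher reads as stronger inhibition. Most strong results did not repeat in a second test. About 67,000 compounds were tested under these conditions; 0.06% (about 40) showed 50% or more at least once.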

Values are the deposited “Percent Effect”, in %.
The record does not define 0% and 100%; most values in the screen are far below 50% and negative numbers occur (in some assays of this library far below -100).
Compounds were drawn at random from those tested, without regard to their results.
Two or more numbers in one place are separate tests of the same structure; such repeats can differ widely.

For CN1CCC2(Cc3ccccc3CN(C(=O)c3ccc(Cl)cc3)C2)C1 (stereo unspecified) the result was A: 8.276%; B: 3.23%; C: -5.263%.
For CCc1ccc(NC(=O)Nc2c(O)oc3ccccc3c2=O)cc1 the result was A: 13.58%; B: 22.49%; C: 4.592%.
For Cc1nc(CN(Cc2cccnc2)Cc2ccsc2)c[nH]1 the result was A: 11.83%; B: 27.66%; C: 5.556%.
For O=C(O)C(F)(F)F.O=C(O)C(F)(F)F.[H][C@]12CCC[C@@H](CN(C)C3CC3)[C@@]1([H])CN(Cc1ccc(OC)nc1)C2 the result was B: 15.22%.
For CC(C)(C)c1nnc2n1C(C(=O)N1CCCC1)CC2 (stereo unspecified) the result was A: 13.79%; B: 14.98%; C: -3.158%.
For CC(NC(=O)CCC(=O)c1cccs1)c1nnc2n1CCC2 (stereo unspecified) the result was A: 8.929%; B: 30.47%; C: 13.16%.
For CCCn1[nH]cc/c1=N\C(=O)CN1CCCC1Cn1cccn1 (stereo unspecified) the result was A: 6.349%; B: 17.9%; C: 0.2484%.
For COc1ccc(Cl)cc1C(=O)NCc1cnn(C)c1C the result was A: 1.77%; B: 7.165%; C: 1.635%.
For CCCN1CCN(C(=O)Cc2cccnc2)[C@H]2CS(=O)(=O)C[C@H]21 the result was A: 22.22%; C: 12.3%.
For CN(Cc1nnc(C2CC2)o1)C(c1ccc(F)cc1)c1cccnc1 (stereo unspecified) the result was A: 6.897%; B: 0.396%; C: 6.21%.
For Cc1nc2c(c(=O)[nH]1)CCN(C(=O)c1[nH]nc3c1CC(C)CC3)C2 (stereo unspecified) the result was A: -53.66%; B: -13.2%; C: 0.3817%.
For COCC1CCCCN1C(=O)c1cc(-c2cccc(OC)c2)n[nH]1 (stereo unspecified) the result was A: 14.17%; B: -0.5575%.
For CCCS(=O)(=O)N1C[C@H]2C[C@H](C(=O)N3CCCC3)[C@@H](C1)O2 the result was A: 17.31%; C: -0.9009%.
For COc1ccc(OC)c(S(=O)(=O)NC(=O)C(C)OC)c1 (stereo unspecified) the result was A: 13.95%; B: 16.83%; C: 1.106%.
For COCCN(C)CC(=O)N1CCCC2(CCC(=O)N(CC3CC3)C2)C1 (stereo unspecified) the result was A: 20.41%; B: 16.45%; C: 29.62% and 8.763%.
For CCCc1noc(CCC(=O)Nc2cc(C(F)(F)F)c[nH]c2=O)n1 the result was A: 12.9%; B: 15.59%; C: -0.615%.
For CNc1nccnc1C1CN(C(=O)c2cc[nH]n2)CCO1 (stereo unspecified) the result was A: 12.77%; B: -9.424%; C: 1.84%.
For CC(C)c1nnc(NC(=O)CCC(=O)NCC2CCCO2)s1 (stereo unspecified) the result was A: -5%; B: -17.04%; C: -0.6329%.
For O=C(c1cnc2n1CCCC2)N1CCCC1 the result was A: 11.43%; B: 5.715%; C: 4.615%.
For O=C(O)C(F)(F)F.O=C(O)C(F)(F)F.[H][C@@]12CN(Cc3cccc(F)c3)C[C@]1([H])CN(c1ncc(F)cn1)C2 the result was B: 9.027% and -12.12%.
For CN(C)C(=O)CO[C@@H]1CC[C@H]2[C@H]1OCCN2c1ncc(F)cn1 the result was A: 2.703%; C: 1.238%.
For CCOC(=O)N1CCN(c2nc(N)c3ccccc3n2)CC1 the result was A: 6.667%; C: 2.355%.
For [H][C@@]12CS(=O)(=O)C[C@]1([H])N(C(=O)c1ccc3c(c1)ncn3C)CCN2CCO the result was B: 24.33%.
For Cc1nn(C)c(Cl)c1C1CCCN1CC(=O)NCc1ccccn1 (stereo unspecified) the result was A: 10.81%; B: 14.81%; C: 4.961%.
For CN1N=C(C(=O)N2CCCC(CCc3c(F)cccc3F)C2)CCC1=O (stereo unspecified) the result was A: 15.38%; B: 37.57%; C: -6.183%.
For CC(CC(=O)Nc1ncn(CC(=O)NCc2ccccc2)n1)C1CC1 (stereo unspecified) the result was A: 16.13%; B: 6.088%; C: 1.353%.
For NC(=O)NC(=O)CCN1CCN(CC2CC2)c2ccccc21 the result was A: 81.25%; B: -26.66%; C: 6.25%.
For O=S(=O)(Cc1ccccc1Cl)NC(CO)c1ccco1 (stereo unspecified) the result was A: 9.649%; B: -18.9%; C: 4.126%.
For Cn1ccnc1SCCNc1nccc(C(F)(F)F)n1 the result was A: 23.08%; B: -15.04%; C: 13.2%.
For O=C(c1cc(F)ccc1F)C1CCN(C(=O)c2cccnc2O)CC1 the result was A: 13.33%; B: 26.11%; C: 5.641%.
For Cc1ccc(N2CC3(CCN(c4nccs4)C3)C2)nn1 the result was A: 9.524%; B: -5.931%; C: 1.935%.
For [H][C@@]12CS(=O)(=O)C[C@]1([H])N(Cc1cnn(-c3ccccc3OC)c1)CCN2C the result was B: 23.32%.
For Cc1cc(C(F)(F)F)nc(N2CCN(Cc3nccn3C)CC2)n1 the result was A: 21.21%; B: -26.95%; C: -6.114%.